Test results taken from patent US20190000790A1, “PPAR-GAMMA ACTIVATORS AND THEIR THE[…]” (THERIAC B[…]., priority 2015, published 2019).
At least one structure is not confirmed: it was looked up by name or label, or the drawing left a doubt.

Tested on: human PPARγ
Assay: Reporter gene bioassay of PPAR transcriptional activity (Gal4-hPPARγ / UAStkLuc luciferase in 293 cells)
Format: cell-based
Settings: each compound alone, 16 h, FIGS. 1A and B
Description: FIG. 1A, 1B illustrate a transcriptional activation of PPARγ by BNZ and PAA. Luciferase assay was performed in 293 cells transfected with Gal4-hPPARγ and UAStkLuc reporter construct and treated for 16 h with respective compounds. Data are expressed as fold change ±SEM compared to untreated cells set at 1.0.*, P<0.05; **, P<0.001.
FIG. 1C illustrates the additive effect of SB and PAA on transcriptional activity of PPARγ. Luciferase assay was performed in 293 cells transfected with Gal4-hPPARγ and UAStkLuc reporter construct and treated 10 mM of each compound for 16 h. Data are expressed as fold change ±SEM compared to untreated cells set at 1.0.*, P<0.001.
Human embryonic kidney 293 cells were seeded in DMEM supplemented with 5% charcoal dextran-treated FBS and transfected with Gal4 DBD fusion of PPAR isoforms and UAStkLuc reporter as described (12). Cells were then treated for 16 hrs and harvested for luciferase activity. Luciferase values were normalized for transfection efficiency to β-galactosidase activity and expressed as relative fold response compared to untreated cells. Data are derived from at least four independent experiments performed in triplicates. […]

## O=C(O)Cc1ccccc1 [PAA, phenylacetate]
  PPARγ activity (transcriptional activation, luciferase): significantly potent in increasing PPARγ activity
